Experimental data: PubChem BioAssay AID1487 (National Center for Advancing Translational Sciences (NCATS), 2009)
“And” between values parts separate entries of the source, which are not always exact repeats. Identical values can stand only once. Hit rate of the full screen: of about 200,000 compounds, about 25 (0.01%) were called active. This list was built around the results that the source calls inconclusive (neither active nor inactive); the mix of calls is not that of the screen. Calls come from the whole dose curve; as a rule, active = well fitted inhibition curve with a large enough effect in the signal ratio, with a control signal flat (not every such curve was filed as active); inconclusive = small, poorly fitted or top-dose-only effect, or effect the other way, or a change in a side signal; inactive = flat fitted curve, though single readings scatter; the % refers to the signal ratio. Potencies beside an inconclusive call are fits to weak or partial responses and may not hold up.

assay: qHTS Assay for Modulators of Lamin A Splicing; details: HeLa LMNA splicing GFP/RFP minigene ratio, 48 h; ratio change, negative = inhibition: at 46.1 µM (top of the series) unless noted
In short: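 S3 HeLa cells stably expressing lamin A-EGFP splicing minigene plus DsRed2, 600 cells/well, 48 h compound exposure at 37C. Laser-scanning cytometry; analysed as GFP (500-530 nm)/RFP (575-640 nm) total intensity ratio; 0.5% DMSO vehicle.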
% is set by controls: 0 for no effect and ±100 for the full control effect; potency is the fitted concentration of half-maximal effect.

SMILES | ratio change, negative = inhibition | Potency
COc1ccc(-c2csc(NC(=O)c3ccccc3S(C)(=O)=O)n2)cc1 | inconclusive: -32.7% [at 46 µM] | 
COc1ccccc1CCc1nnc(CCC(=O)NCCOc2cccnc2)o1 | inconclusive: 51.1% [at 46 µM] | 
CCSc1nc2sc3c(c2c(=O)n1C1CCCCC1)CCN(C)C3 |  | inconclusive: 22.4 µM [fluorescent, single point]
NC(=O)c1ccc(SCC(=O)NC2CCCCC2)c([N+](=O)[O-])c1 | inactive: 8.84% [at 9.22 µM] | 
O=C(Nc1ccc2c(c1)N(C1CCCC1)C(=O)c1ccccc1S2)c1cccc(F)c1 |  | inconclusive: 3.55 µM [inhibitor, full curve, poor fit]
COc1ccc(COc2cc(-c3cccc(OC)c3)nc3ccc(NC(=O)c4ccccc4)cc23)cc1 | inconclusive: -37.6% | 
CCOC(=O)c1c(C)c(C(=O)N2CCN(c3cccc(Cl)c3)CC2)c(C)n1C |  | inconclusive: 35.5 µM [fluorescent, single point]
CC(=O)c1ccc(NC(=O)c2cnsn2)cc1 | inconclusive: 37.2% [at 46 µM] | 
Cc1ccsc1C(=O)NNC(=O)C1CCCCC1C(=O)O (configuration not stated) | inactive | 
Cc1ccc(NCC(=O)N/N=C/c2ccc(OC(=O)c3ccco3)cc2)cc1 | inconclusive: -0.711% | 
CC(=O)NC1=NN(C(C)=O)C2(CCCC2)S1 | inconclusive: -10.3% [at 9.22 µM] | 
CCC(C)NC(=O)CSc1nc2scc(-c3ccccc3)c2c(=O)[nH]1 (configuration not stated) | inconclusive: -37.8% | 
CCCCOc1ccc(C2OC34CCCCC3C(C#N)(C#N)C2(C#N)C(=N)O4)cc1 (configuration not stated) | inactive | 
CCCC(c1nnnn1Cc1ccco1)N1CCN(c2cc(Cl)ccc2C)CC1 (configuration not stated) | inconclusive: -29.6% | 
CCn1c(SCC(=O)NCC2CCCO2)nnc1-c1c[nH]c2ccccc12 (configuration not stated) | inactive | 
O=Cc1ccnc(-c2ccc(OC(=O)c3ccco3)cc2)n1 | inconclusive: 7.91% [at 9.22 µM] | 
O=C(Nc1ccc(S(=O)(=O)Nc2ccc(Cl)cc2)cc1)C1CCCO1 (configuration not stated) |  | inconclusive: 11.2 µM [falling, single point]
CCC1(c2cccc(Cl)c2)NC(=O)N(Cc2cc(C(=O)OC)c(C)o2)C1=O (configuration not stated) |  | inconclusive: 22.4 µM [falling, single point]
O=[N+]([O-])c1ccc(Sc2n[nH]c(-c3ccco3)n2)nc1 | inconclusive: 10.1% [at 46 µM] | 
CCOC(=O)C1CCCN(S(=O)(=O)c2cc(OCC(=O)NC3CCCCC3)c(C)cc2Cl)C1 (configuration not stated) |  | inconclusive: 35.5 µM [falling, single point]
Cc1ccc(C(=O)c2cc([N+](=O)[O-])ccc2N2CCCCC2)c(C)c1 | inconclusive: -14.5% | 

SMILES | ratio change, negative = inhibition | Potency
CCc1ccccc1-n1c(SCC(=O)NC)nnc1-c1cccnc1 | inactive | 
COc1cc(NS(=O)(=O)c2ccc(N/C=C(\C=O)c3nc4cc(Cl)ccc4o3)cc2)nc(OC)n1 | inconclusive: -18.6% | 
COc1cccc(/C=N/NC(=O)c2ccc(COc3ccc(Cl)cc3Cl)o2)c1 | inconclusive: 33.9% | 
Cc1c(NC(=O)C2CCCCC2)cc(C(=O)N2CCOCC2)cc1[N+](=O)[O-] | inconclusive: 1.44% [at 9.22 µM] | 
CCCCCCC(C)n1[nH]c(=O)c2c(C)cc(=O)[nH]c21 (configuration not stated) | inactive | 
C=C(C)CSc1nc2ncc(Cl)cc2[nH]1 | inactive | 
CC(C)(C)c1nnc(SCC(=O)c2ccccc2)n(N)c1=O | inconclusive: -15.2% | 
NC(=O)Cn1c(=O)n(Cc2ccco2)c(=O)c2c3c(sc21)CCCCC3 | inactive | 
O=C(CN1C(=O)C2CCCCC2C1=O)Nc1nc(-c2ccccn2)cs1 (configuration not stated) |  | inconclusive: 17.8 µM [falling, single point]
Cc1ccc(OCC(=O)Nc2ccc(Cl)c(-c3nc4ccccc4[nH]3)c2)cc1C |  | inconclusive: 11.2 µM [inhibitor, partial curve, poor fit]
O=c1c(-c2ccc(F)cc2)nc2cnc(Oc3cccc(Cl)c3)nc2n1C[C@H]1CCCO1 | inconclusive: -23.4% | 
COc1cc(Cc2cnc(N)nc2N)cc(OC)c1OC | inconclusive: -2.23% and inconclusive: -11.2% | 
CCOC(=O)c1c(C)oc2c1c(C(c1cccnc1)N1CCN(C)CC1)c(O)c1ccccc12 (configuration not stated) |  | inconclusive: 35.5 µM [inhibitor, single point]
COc1ccc(N2CCN(C(=O)CCNS(=O)(=O)c3ccccc3)CC2)cc1 | inactive | 
C=CCc1cccc(/C=N/NC(=O)C(C)Nc2ccc(C)cc2)c1O (configuration not stated) |  | inconclusive: 35.5 µM [fluorescent, single point]
CCCC(=O)NC(c1cccs1)c1cc([N+](=O)[O-])c2cccnc2c1O (configuration not stated) |  | inconclusive: 3.98 µM [falling, full curve]
COCCCNCCOCCSc1ccc(Cl)cc1 | inconclusive: 4.22% | 
N#CC1=C(N)Oc2n[nH]c(-c3cccs3)c2C1c1ccco1 (configuration not stated) | inactive | 
Clc1cccc(CNc2nnnn2-c2ccccc2)c1 |  | inconclusive: 10 µM [falling, partial curve]
O=C(CCSCc1ccccc1F)N1CCN(c2ccc(Cl)cc2)CC1 | inconclusive: -19% [at 46 µM] | 
Cc1ccc(-n2c(-c3nn(C)c(C)c3Cl)n[nH]c2=S)cc1 | inactive | 

SMILES | ratio change, negative = inhibition | Potency
CC1(C)CC(=O)C2=C(C1)OC(N)=C(C#N)C2c1cccs1 (configuration not stated) | inactive | 
O=C(O)C[CH2][Ge](=[O])[O][Ge](=[O])[CH2]CC(=O)O | inconclusive: -18.1% | 
CCC(=O)NC(=S)Nc1cccc(-c2nc3ncccc3o2)c1 | inconclusive: 12.9% | 
O=C(CN1C(=O)C2C3C=CC(C4CC34)C2C1=O)Oc1ccccc1 (configuration not stated) | inconclusive: 1.6% [at 46 µM] | 
CCC(C)(C)NC(=O)C(c1ccc(C)cc1)N(CCN1CCOCC1)C(=O)CNC(=O)c1cccs1 (configuration not stated) | inactive | 
O=C(Cc1ccc(Cl)cc1)OCc1nnc(-c2ccccc2)o1 | inactive | 
CCN1CCN(S(=O)(=O)Cc2ccccc2)CC1 | inactive | 
CCN1/C(=C2\C(=O)N(C)C(=S)N2C)C=Cc2cc(C)ccc21 | inactive | 
Cc1cccc(/C(N)=N/OC(=O)c2ccc3c(c2)OCO3)c1 | inactive | 
Cc1cccc(NC(=O)CSc2nc(C3CCCC3)nc3c2c(=O)n(C)c(=O)n3C)c1C | inconclusive: -3.54% [at 46 µM] | 
COc1cccc(C(=O)N(Cc2ccc(N(C)C)cc2)C2CCS(=O)(=O)C2)c1 (configuration not stated) | inactive | 
Cc1nc(N2CCN(C(=O)c3ccc(Cl)cc3)CC2)c(C#N)c2c1COC(C)(C)C2 |  | inconclusive: 35.5 µM [fluorescent, single point]
CCOC(=O)c1ccc(NC(=O)c2cc3c([nH]c2=O)CC(c2ccccc2)CC3=O)cc1 (configuration not stated) | inactive | 
COC(=O)CCSc1cc(NCCOC(C)=O)c([N+](=O)[O-])c2nonc12 | inactive | 
O=C(c1ccc(Cn2c(=S)[nH]c3ccccc3c2=O)cc1)N1CCN(c2ccccn2)CC1 | inconclusive: -21.1% [at 46 µM] | 
Cc1cc(Nc2ccccc2)nc2cc(O)ccc12 | inconclusive: -24.8% | 
CC(C)c1cc(C(N)=O)c(NC(=O)c2cccc(COc3ccc(Cl)cc3)c2)s1 | inactive | 
COc1ccccc1NC(=O)CCS(=O)(=O)c1ccccc1 | inactive | 
N#Cc1nc(COc2ccccc2F)oc1NCCCn1ccnc1 | inconclusive: 2.67% | 
CCOC(=O)Cn1c(=O)n(CC2CCCO2)c2nc(-c3c(F)cccc3Cl)nc(C(N)=O)c21 (configuration not stated) | inactive | 
CCN(CC)c1ccc(NC(=O)c2cnc3ccccn3c2=O)c(C)c1 | inactive | 

SMILES | ratio change, negative = inhibition | Potency
COc1cccc(-c2noc(C3CCCN(C(=O)Cc4ccccc4)C3)n2)c1 (configuration not stated) | inactive | 
CCCCN(C)S(=O)(=O)c1ccc(C(=O)Nc2nnc(-c3ccco3)o2)cc1 | inconclusive: -24.5% [at 9.22 µM] | 
Cc1c2c(nc3ccccc13)CC(C)(C)CC2=O | inactive | 
COCc1cc(C)nc2sc(C(=O)N3CCCCC3)c(N)c12 | inactive | 
CCCN(CCC)C(=O)C1CCCN(c2ncnc3c2nc2n3CCCCC2)C1 (configuration not stated) | inconclusive: -34.3% [at 46 µM] | 
C=CCc1cc(/C=C2/NC(=O)N(CC)C2=O)cc(OCC)c1OCc1ccc(C(=O)O)cc1 | inactive | 
COC(=O)c1ccccc1NC(=O)c1cc(-c2cccs2)on1 | inactive | 
CCOC(=O)c1c(C)[nH]c(CCC(=O)NCCCN2CCN(c3ccccc3F)CC2)c1C | inconclusive: -21.6% [at 46 µM] | 
O=C(Nc1ccc2cn[nH]c2c1)c1ccccc1F | inactive | 
C/C(=N\NC(N)=S)C1C2C3CC4C5CC(C42)C1C53 (configuration not stated) | inconclusive: 7.52% [at 46 µM] | 
COCCCN1CN(Cc2ccccc2)CNC1=S | inactive | 
O=C(c1ccc2c(c1)N(Cc1ccccc1)CCS2)N1CCCCC1 | inactive | 
CC(=O)c1ccc2c(c1)N(CCCN1CCC(CCO)CC1)c1ccccc1S2 | inconclusive: -19.4% | 
COCCNC(=O)C(=O)NCC(c1cccnc1)N1CCN(c2ccccc2)CC1 (configuration not stated) | inconclusive: 5.64% [at 46 µM] | 
Cn1c(NC(=O)/C=C/c2ccco2)cc(=O)n(C)c1=O | inactive | 
CO[C@@]1(NC(=O)Cc2cccs2)C(=O)N2C(C(=O)O)=C(COC(N)=O)CS[C@@H]21 | inconclusive: 15.1% | 
C=CCNC(=O)C1CCN(S(=O)(=O)c2ccc(Br)cc2)CC1 | inconclusive: -3.8% | 
O=C1/C(=C/c2cccnc2)Oc2cc(OS(=O)(=O)c3ccc(F)cc3)ccc21 | inactive | 
O=C1C(Cl)=C(N2CCN(c3ccccc3[N+](=O)[O-])CC2)C(=O)c2ccccc21 |  | inconclusive: 31.6 µM [inhibitor, single point]
